Laboratory results as given in the supplement of paper PMC10849652.
Some of the results follow.

Protein sequences, listed by entry. Tags and fused reporters are not part of them. Lines headed by an entry give the natural chain unless they say otherwise; changes in a name come on top.
UniProt Q96QG7: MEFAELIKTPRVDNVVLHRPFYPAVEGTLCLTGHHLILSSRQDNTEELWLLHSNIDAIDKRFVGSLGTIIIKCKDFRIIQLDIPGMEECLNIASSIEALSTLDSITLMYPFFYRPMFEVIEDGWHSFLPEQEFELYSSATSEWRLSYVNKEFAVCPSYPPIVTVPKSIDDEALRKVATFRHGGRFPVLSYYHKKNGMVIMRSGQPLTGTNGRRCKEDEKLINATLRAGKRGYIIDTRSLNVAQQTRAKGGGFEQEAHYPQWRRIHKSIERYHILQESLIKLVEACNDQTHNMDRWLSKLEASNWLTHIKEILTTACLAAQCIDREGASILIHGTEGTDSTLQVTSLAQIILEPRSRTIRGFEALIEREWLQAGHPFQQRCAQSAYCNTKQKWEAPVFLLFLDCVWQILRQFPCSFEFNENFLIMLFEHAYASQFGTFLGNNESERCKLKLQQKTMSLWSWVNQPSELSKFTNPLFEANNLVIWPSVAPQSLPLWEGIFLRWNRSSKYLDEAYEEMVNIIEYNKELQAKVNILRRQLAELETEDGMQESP
UniProt P46199: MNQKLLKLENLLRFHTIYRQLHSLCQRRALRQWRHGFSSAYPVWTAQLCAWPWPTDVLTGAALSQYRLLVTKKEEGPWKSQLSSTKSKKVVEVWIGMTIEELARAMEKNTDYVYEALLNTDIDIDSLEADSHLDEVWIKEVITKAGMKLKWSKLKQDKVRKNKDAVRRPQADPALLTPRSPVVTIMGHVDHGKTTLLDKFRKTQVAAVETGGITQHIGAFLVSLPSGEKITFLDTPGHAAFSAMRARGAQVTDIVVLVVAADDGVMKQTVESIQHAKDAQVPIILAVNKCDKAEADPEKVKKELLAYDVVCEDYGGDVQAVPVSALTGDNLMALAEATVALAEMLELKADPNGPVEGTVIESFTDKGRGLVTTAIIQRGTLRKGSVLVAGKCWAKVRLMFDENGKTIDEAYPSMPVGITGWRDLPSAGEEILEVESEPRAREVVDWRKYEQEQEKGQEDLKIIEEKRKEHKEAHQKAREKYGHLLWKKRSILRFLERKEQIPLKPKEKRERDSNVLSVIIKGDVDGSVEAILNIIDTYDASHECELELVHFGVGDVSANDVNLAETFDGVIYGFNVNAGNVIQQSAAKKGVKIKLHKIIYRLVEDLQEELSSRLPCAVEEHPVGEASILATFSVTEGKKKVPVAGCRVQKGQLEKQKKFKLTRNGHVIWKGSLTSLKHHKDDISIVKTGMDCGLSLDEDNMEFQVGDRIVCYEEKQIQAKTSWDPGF
UniProt Q9HD23: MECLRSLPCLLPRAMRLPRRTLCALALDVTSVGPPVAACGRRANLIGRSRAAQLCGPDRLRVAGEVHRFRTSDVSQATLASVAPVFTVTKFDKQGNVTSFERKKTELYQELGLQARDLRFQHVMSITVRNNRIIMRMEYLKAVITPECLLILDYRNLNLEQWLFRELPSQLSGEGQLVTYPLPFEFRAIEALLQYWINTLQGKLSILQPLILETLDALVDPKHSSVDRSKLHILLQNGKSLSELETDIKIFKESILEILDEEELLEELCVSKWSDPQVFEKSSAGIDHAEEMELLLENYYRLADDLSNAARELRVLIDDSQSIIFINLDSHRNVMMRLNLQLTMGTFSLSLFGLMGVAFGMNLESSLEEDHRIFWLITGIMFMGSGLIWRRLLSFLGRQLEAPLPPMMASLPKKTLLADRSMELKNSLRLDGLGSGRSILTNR
UniProt P03886, whole entry, looked up: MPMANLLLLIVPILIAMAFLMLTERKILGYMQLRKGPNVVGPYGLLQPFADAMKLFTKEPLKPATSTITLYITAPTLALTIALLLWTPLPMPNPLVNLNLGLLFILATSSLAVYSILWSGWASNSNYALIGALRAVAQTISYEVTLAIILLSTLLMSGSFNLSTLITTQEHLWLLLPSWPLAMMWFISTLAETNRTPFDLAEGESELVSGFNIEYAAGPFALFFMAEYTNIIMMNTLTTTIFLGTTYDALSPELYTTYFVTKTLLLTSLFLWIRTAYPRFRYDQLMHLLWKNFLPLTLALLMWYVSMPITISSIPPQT
UniProt Q13496: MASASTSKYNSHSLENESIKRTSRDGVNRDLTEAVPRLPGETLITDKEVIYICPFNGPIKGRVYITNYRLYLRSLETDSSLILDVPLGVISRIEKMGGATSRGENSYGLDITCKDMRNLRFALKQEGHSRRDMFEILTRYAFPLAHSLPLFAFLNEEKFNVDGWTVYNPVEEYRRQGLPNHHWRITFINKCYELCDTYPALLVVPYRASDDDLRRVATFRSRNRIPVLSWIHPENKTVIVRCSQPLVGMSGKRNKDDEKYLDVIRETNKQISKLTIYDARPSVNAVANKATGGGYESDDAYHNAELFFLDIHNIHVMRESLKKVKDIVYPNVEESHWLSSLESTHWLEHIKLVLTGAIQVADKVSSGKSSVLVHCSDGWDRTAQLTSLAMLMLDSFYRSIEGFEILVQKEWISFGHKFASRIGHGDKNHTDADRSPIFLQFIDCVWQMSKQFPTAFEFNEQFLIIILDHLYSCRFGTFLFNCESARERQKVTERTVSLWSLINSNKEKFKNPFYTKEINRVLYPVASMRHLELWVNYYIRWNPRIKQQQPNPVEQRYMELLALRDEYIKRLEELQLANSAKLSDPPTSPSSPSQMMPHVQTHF
UniProt P52701: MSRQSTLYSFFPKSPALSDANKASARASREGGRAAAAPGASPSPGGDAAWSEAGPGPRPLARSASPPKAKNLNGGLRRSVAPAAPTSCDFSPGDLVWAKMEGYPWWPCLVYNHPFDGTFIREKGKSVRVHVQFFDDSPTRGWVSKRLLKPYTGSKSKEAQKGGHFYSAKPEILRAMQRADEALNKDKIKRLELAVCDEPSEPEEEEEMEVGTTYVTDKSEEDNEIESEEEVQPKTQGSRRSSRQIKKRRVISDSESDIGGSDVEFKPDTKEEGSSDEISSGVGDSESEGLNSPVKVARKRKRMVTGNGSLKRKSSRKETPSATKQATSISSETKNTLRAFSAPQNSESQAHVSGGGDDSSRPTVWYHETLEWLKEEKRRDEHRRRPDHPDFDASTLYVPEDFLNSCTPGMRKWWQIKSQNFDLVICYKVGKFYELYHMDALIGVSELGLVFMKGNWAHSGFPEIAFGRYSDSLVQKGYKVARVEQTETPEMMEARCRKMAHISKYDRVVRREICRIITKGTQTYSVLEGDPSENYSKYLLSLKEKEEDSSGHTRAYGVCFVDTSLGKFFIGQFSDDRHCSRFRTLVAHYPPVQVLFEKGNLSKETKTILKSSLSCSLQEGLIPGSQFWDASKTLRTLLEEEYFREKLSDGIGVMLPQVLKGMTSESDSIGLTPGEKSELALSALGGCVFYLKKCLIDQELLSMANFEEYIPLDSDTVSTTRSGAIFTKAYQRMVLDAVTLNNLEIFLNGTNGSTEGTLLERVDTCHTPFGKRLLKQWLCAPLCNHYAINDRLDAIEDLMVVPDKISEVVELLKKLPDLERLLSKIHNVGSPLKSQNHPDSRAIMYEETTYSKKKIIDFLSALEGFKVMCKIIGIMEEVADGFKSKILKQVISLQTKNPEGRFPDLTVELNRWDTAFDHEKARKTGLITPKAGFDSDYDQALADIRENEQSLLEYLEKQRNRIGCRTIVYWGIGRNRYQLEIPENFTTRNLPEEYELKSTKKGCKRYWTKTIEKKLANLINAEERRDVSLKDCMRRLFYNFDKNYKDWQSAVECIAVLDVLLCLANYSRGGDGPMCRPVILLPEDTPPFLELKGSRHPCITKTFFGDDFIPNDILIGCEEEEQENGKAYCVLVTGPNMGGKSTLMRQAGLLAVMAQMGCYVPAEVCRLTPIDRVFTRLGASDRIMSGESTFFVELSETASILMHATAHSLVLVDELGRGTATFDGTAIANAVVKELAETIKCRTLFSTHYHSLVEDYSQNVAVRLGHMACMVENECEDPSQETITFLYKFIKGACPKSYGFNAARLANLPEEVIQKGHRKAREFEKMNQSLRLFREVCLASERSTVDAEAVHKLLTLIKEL
UniProt Q9Y3D2: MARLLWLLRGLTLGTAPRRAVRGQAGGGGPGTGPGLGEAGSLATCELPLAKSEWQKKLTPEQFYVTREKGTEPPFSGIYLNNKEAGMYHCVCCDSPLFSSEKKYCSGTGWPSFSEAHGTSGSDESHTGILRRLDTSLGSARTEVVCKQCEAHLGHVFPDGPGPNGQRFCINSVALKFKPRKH
UniProt Q13330: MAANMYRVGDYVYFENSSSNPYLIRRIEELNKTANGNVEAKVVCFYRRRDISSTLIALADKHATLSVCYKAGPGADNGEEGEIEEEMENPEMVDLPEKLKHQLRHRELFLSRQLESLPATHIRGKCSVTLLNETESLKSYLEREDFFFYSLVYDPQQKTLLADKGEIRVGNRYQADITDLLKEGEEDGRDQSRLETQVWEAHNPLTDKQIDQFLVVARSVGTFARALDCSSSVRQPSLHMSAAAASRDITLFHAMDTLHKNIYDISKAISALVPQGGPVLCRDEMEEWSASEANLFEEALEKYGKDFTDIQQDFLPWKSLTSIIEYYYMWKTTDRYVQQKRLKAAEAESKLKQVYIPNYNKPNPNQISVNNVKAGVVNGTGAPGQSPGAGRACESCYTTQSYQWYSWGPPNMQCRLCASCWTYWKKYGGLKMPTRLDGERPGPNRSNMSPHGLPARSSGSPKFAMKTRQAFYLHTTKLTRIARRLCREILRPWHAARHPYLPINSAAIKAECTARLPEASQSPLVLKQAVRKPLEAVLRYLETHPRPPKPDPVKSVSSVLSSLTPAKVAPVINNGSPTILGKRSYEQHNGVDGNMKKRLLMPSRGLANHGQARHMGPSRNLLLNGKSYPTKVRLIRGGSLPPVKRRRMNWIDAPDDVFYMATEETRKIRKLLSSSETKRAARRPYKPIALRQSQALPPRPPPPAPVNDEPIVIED
UniProt Q96DH6: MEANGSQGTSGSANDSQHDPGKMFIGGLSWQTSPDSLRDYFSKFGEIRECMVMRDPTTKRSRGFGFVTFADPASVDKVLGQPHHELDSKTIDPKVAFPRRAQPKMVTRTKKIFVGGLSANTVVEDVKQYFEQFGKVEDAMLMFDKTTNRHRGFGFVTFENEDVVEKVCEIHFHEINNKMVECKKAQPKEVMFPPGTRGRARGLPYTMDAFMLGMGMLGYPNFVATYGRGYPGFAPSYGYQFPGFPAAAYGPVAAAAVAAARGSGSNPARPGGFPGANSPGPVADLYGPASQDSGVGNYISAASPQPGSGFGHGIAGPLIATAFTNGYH
UniProt P82909: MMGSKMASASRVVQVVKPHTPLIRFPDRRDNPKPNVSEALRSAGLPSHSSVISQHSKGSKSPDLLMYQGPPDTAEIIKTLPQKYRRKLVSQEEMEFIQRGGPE

The targets below were run with CNc1nc(-c2ccc3c(N)n[nH]c3c2)cc(N2C[C@@H](C(=O)NC3CCCCC3)CC[C@H]2C)n1 (assay: log2 fold change, soluble protein after heating vs DMSO (PISA); higher = thermal stabilisation; K562 lysate, 10 uM; active = over 0.2 and 3.5 SD of the protein, either way, in both replicates (recomputed)).
How it was run: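 The values are log-two fold changes in thermal stability compared with solvent controls and come from duplicates. They were obtained by TMTpro 16plex LC-MS/MS, with channel sums equalised, on the supernatant after 21,000xg for 90 min. That supernatant came from crude K562 extract at 1 mg/mL protein treated with 10 μM compound for 30 min, heated for 3 min across 48°C-58°C, pooled and brought to 0.5% NP-40 at 4°C.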

log2 fold change, inactive:
MRPL4 (UniProt Q9BYD3) 0.039
MRPS9 (UniProt P82933) 0.044
MTMR9 (UniProt Q96QG7) 0.071
MRPL28 (UniProt Q13084) 0.001
MRPL41 (UniProt Q8IXM3) 0.002
MRPS22 (UniProt P82650) 0.038
MRPL45 (UniProt Q9BRJ2) -0.001
MRPS18A isoform 2 (UniProt Q9NVS2) 0.106
MRPL50 (UniProt Q8N5N7) 0.042
MTIF2 (UniProt P46199) -0.013
MRS2 (UniProt Q9HD23) -0.039
MT-ND1 (UniProt P03886) 0.014
MRPS30 (UniProt Q9NP92) 0.02
MTM1 (UniProt Q13496) 0.058
MRPS18B (UniProt Q9Y676) 0.019
MRPL32 (UniProt Q9BYC8) 0.129
MRPS5 (UniProt P82675) 0.002
MSH6 (UniProt P52701) -0.032
MSRB2 (UniProt Q9Y3D2) 0.033
MTA1 (UniProt Q13330) -0.01
MSI2 (UniProt Q96DH6) -0.012
MRPL9 (UniProt Q9BYD2) 0.072
MRPS10 (UniProt P82664) 0.041
MRPS36 (UniProt P82909) 0.152

A run of entries taken from the entries so far, for reference:
log2 fold change, inactive:
MRS2 (UniProt Q9HD23) -0.039
MT-ND1 (UniProt P03886) 0.014
